Test [1] deals with human Sirpα-V1-his (human) (UniProt P78324). Description: ELISA, supernatant. On the technique in general: ELISA stands for enzyme-linked immunosorbent assay.
Test [2] deals with Cyno Sirpα L938 (cynomolgus). Description: ELISA.
Test [3] has as its target Cyno Sirpα L939 (cynomolgus). Put plainly: ELISA.

The chains behind the UniProt entries cited, without tags or fusion partners. Where a name states a change or a piece, a line headed by the entry shows the natural chain unless it says otherwise. A line that says so, or that is headed by a name, gives the form on record, which may keep a tag or linker.
human Sirpα-V1-his (P78324, form named): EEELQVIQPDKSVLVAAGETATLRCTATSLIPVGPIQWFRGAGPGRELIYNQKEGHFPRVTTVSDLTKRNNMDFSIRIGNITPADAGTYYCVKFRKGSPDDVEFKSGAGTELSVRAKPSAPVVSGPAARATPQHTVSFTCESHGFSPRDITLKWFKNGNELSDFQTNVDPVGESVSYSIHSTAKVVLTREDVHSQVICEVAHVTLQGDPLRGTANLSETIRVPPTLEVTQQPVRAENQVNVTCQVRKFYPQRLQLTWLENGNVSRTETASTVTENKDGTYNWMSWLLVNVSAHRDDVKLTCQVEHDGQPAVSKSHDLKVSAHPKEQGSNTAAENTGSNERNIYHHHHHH

No constants are given. Whether binding was seen depends on the method and setting. Some results given as binding are weak or reduced against the parent protein; the word gives no strength.

B1: hybridoma subclone 14H6E5B5C8G2 (supernatant antibody; murine mab14) (antibody, V domains shown)
VH: QVHLQQPGAELVKPGASVKLSCKASGYNFNIYWINWVKQRPGQGLEWIGNIYPSSISTNYNEKFKTKATLTVDKSSNTVYMQFSSLTSEDSAVYYCARSEGTYYGGRYEGDWFGYWGQGTLVTVSA
VL: DIQMTQTTSSLSASLGDRVTISCRASQDIRNYLNWYQQKPDGTVKLLIYFTSTLHSGVPSRFSGSGSGTDYSLTISNLEQEDIATYFCQQGNTLPWTFGGGTKLEIK
With B1, the binding entry in test [1] was “binds”.

B2: human-murine chimeric antibody mab14c (antibody, human IgG4 S228P, kappa, V domains shown)
VH: QVHLQQPGAELVKPGASVKLSCKASGYNFNIYWINWVKQRPGQGLEWIGNIYPSSISTNYNEKFKTKATLTVDKSSNTVYMQFSSLTSEDSAVYYCARSEGTYYGGRYEGDWFGYWGQGTLVTVSA
VL: DIQMTQTTSSLSASLGDRVTISCRASQDIRNYLNWYQQKPDGTVKLLIYFTSTLHSGVPSRFSGSGSGTDYSLTISNLEQEDIATYFCQQGNTLPWTFGGGTKLEIKR
Turning to B2, the binding result in test [2] and in test [3] was “no binding (tested: EC50 ≥ 50 nM or no signal value detected)” each time.

Values taken from patent US20230106247A1.
